Experimental data as given in patent publication US20110104157A1, “LIVER CANCER DRUG” (Chugai Seiyaku Kabushiki Kaisha, priority 2008, published 2011).
Results are given in words; binding and its absence hold for the method and conditions named. Some binding calls cover weakened binding; strength is not graded here.

Chains of the proteins cited; added tags and fusions are not shown. Lines headed by an entry give the natural chain unless they say otherwise; changes in a name come on top.
UniProt P51654: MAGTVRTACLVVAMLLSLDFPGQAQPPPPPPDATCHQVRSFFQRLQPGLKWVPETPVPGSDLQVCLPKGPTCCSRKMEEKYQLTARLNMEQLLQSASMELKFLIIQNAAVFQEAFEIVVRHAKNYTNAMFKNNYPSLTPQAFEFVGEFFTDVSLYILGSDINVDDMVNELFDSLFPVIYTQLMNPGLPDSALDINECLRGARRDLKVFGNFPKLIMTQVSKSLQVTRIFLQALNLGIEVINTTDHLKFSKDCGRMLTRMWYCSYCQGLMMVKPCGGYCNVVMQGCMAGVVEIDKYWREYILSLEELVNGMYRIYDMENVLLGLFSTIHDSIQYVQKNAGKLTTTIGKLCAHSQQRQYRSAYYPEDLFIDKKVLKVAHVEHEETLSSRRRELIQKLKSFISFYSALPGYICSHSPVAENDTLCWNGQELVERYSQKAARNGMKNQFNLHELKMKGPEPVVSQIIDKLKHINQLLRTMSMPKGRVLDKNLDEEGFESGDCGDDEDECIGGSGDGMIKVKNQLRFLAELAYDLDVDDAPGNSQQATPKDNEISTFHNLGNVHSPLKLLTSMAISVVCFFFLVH

Target: soluble GPC3 core polypeptide (Homo sapiens (Human)) (UniProt P51654)
Assay: competitive ELISA by the method of Reference Example 3, competitor biotinylated H0L0

B1: pH7pL16 antibody (antibody, V domains shown)
VH: QVQLVQSGAEVKKPGASVTVSCKASGYTFTDYEMHWIRQPPGEGLEWIGAIDPKTGDTAYSESFQDRVTLTADKSTSTAYMELSSLTSEDTAVYYCTRFYSYTYWGQGTLVTVSS
VL: DIVMTQSPLSLPVTPGEPASISCQASESLVHSNRNTYLHWYLQKPGQSPQLLIYKVSNRFSGVPDRFSGSGSGTDFTLKISRVEAEDVGVYYCSQNTHVPPTFGQGTKVEIE
B1 was tested, and the binding was “binds”.
